Drawing on patent publication US20240417479A1 (LASSEN THERAPEUTICS, published 2024), this text covers binding for one molecule.

The target of this test is hypo-IL-18 (IL-18 tethered to IL-18BP by a flexible linker with a TEV site, 6xHis) (human). The experiment in a line: BLI, binding to hypo-IL-18.

Results are given in words; binding and its absence hold for the method and conditions named. Some entries that bind do so weakly or less than the wild type.

B1: SA07a (antibody, human IgG1, V domains shown)
VH: EVQLQQSGPELVKPGASVKISCKASGYTFTDYYMNWVKQSHGKSLEWIGDINPNNGGTSYNQKFKGKATLTVDKSSNTAYMELRSLTSEDSAVYYCAREGVYSNYGGYFDYWGQGTTLTVSS
VL: QIVLTQSPALMSASPGEKVTMTCSASSSVSYMYWYQQKPRSSPKPWIYLTSNLASGVPARFSGSGSGTSYSLTISSMEAEDAATYYCQQWSSNPPTFGSGTKLEIK
As for B1, the binding result is on record as “binds”.
